{"sequences": {"note": "Sequences of proteins named here, by UniProt entry; tags and fusion partners are left off. A change or cut given only in a name is not applied to a line headed by its entry.", "UniProt P43219": "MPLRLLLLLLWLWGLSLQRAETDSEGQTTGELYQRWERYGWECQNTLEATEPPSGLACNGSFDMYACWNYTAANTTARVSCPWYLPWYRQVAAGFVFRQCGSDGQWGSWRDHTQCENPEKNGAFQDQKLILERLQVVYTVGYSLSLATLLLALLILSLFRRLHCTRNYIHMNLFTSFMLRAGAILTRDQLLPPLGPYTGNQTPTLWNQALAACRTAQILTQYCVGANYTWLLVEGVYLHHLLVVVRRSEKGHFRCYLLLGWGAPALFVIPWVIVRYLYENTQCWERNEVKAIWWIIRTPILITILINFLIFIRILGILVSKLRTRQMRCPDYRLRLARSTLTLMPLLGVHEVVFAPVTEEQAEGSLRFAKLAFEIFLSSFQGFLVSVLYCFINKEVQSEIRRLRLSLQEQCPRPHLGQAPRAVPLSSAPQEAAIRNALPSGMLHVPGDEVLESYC"}, "source": "patent US20260029420A1", "about": "“ANTI-CB2 ANTIBODIES AND THEIR USE IN A FLOW CYTOMETRY ASSAY TO MEASURE CELL SURFACE CB2 EXPRESSION” (Hoffmann-La Roche Inc., priority 2022, published 2026)", "binders": {"B1": {"name": "Anti-CB2 clone 1/622 (antibody, IgG3, V domains shown)", "VH": "EVQLQQSGPELVKPGASVKISCKTSGYTFTEYTMHWVRQSHGKSLEWIGGIDRYNGDTYYNQKFKDKATLTVDRSSSTAYMELRSLTSEDSAVYFCARNGAMDYWGQGISVTVSS", "VL": "DVVMTQTPLSLPVSLGDQASISCRSSQSLVHSNGNTYLHWFLQKPGQSPKLLIYKVSIRFSGVPDRFSGSGSGTDFTLKISRVEAEDLGVYFCSQSTHVPPLTFGAGTKLELKR"}}, "key": {"[1]": {"molecular_target": "pANITA3.1 ratGIPR (DB388) (rat) (UniProt P43219)", "experiment": "Western blot, cell lysate"}, "[2]": {"molecular_target": "pANITA3.1 ratGIPR (DB388) (rat) (UniProt P43219)", "experiment": "immunoprecipitation, cell lysate"}}, "note": "These are yes or no findings as the source states them, for the method shown.", "data": [{"binder": "B1", "values": [{"measurement": "binding", "setting": "[1]", "result": "no binding"}, {"measurement": "binding", "setting": "[2]", "result": "no binding"}]}]}
